The supplement of paper PMC10849652
The list shows a part of the results.

By UniProt entry, the sequences of proteins in these tests, tags left out. Where a name states a change or a piece, a line headed by the entry shows the natural chain unless it says otherwise.
UniProt P26368, whole entry, looked up: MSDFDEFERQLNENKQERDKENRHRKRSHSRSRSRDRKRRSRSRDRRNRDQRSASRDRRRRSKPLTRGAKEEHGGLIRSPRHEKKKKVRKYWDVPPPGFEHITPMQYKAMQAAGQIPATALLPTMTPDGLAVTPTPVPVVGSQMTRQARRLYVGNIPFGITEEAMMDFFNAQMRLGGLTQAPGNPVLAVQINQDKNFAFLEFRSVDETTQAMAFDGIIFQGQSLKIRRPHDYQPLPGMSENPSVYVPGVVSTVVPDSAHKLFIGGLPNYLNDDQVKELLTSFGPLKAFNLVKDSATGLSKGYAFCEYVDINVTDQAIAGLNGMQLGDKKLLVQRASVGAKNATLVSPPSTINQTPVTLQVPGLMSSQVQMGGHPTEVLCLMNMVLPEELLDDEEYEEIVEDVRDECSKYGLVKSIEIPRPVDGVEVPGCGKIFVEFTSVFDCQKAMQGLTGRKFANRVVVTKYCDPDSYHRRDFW
UniProt Q99598: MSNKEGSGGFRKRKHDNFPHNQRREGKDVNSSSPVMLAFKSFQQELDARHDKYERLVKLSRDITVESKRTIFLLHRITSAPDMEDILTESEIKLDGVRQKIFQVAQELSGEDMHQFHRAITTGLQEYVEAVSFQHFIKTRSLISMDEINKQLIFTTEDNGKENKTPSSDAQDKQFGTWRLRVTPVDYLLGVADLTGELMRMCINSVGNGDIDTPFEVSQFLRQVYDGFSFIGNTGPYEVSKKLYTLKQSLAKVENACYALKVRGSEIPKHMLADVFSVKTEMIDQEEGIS
UniProt Q96CW5, whole entry, looked up: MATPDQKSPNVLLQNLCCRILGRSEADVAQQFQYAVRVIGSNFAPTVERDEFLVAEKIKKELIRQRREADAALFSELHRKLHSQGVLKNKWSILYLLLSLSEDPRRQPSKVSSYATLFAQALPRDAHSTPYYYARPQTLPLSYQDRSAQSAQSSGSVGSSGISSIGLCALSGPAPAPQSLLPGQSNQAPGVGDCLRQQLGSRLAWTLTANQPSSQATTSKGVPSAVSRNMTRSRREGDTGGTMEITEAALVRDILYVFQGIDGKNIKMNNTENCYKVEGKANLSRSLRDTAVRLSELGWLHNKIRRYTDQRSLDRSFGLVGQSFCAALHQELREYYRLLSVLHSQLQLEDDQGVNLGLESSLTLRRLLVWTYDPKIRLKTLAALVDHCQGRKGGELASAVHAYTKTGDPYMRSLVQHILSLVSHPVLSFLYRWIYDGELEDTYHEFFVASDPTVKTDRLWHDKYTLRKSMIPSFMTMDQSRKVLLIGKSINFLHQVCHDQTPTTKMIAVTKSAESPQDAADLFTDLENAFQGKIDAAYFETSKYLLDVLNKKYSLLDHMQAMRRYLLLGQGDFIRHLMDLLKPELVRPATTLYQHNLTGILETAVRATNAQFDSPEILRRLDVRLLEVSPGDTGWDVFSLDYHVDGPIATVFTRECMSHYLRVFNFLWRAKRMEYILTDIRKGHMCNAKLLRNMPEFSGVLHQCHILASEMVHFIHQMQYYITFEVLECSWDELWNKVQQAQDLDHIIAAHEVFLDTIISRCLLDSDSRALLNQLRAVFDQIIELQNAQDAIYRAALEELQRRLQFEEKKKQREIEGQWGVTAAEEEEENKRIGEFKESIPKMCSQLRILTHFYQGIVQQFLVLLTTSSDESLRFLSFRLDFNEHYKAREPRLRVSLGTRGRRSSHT
UniProt Q6PKC3: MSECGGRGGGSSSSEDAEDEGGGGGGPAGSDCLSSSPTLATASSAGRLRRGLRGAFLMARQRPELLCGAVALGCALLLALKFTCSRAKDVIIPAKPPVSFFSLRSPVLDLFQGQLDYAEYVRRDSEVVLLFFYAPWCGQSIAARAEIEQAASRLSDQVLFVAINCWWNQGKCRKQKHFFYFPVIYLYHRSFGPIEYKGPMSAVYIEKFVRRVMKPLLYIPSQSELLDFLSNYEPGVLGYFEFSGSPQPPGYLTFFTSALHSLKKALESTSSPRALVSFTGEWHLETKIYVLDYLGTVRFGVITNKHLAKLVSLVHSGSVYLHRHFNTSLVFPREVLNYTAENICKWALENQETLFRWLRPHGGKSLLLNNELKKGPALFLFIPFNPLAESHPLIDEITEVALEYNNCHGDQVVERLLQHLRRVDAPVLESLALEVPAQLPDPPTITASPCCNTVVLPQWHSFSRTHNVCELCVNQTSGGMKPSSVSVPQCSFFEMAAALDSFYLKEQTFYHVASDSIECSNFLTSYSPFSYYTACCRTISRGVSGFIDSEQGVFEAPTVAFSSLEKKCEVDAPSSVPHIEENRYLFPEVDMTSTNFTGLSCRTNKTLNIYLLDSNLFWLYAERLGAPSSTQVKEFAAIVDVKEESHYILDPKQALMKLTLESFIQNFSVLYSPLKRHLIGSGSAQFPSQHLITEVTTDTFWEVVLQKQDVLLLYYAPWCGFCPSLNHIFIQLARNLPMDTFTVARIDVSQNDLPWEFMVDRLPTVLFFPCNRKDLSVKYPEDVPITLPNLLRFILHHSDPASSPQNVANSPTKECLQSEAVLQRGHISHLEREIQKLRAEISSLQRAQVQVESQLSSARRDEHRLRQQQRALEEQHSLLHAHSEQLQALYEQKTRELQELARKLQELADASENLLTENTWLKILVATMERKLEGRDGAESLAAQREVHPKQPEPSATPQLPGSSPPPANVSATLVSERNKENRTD
UniProt O95881: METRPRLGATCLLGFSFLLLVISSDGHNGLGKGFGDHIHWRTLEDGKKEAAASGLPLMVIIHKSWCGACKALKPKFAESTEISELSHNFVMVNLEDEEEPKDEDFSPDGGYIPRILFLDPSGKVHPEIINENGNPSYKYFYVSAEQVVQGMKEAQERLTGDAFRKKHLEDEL
UniProt Q15819: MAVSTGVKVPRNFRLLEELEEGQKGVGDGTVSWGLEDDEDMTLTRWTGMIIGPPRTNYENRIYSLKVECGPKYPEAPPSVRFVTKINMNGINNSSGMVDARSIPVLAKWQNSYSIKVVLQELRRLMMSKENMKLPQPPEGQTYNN
UniProt Q9Y385: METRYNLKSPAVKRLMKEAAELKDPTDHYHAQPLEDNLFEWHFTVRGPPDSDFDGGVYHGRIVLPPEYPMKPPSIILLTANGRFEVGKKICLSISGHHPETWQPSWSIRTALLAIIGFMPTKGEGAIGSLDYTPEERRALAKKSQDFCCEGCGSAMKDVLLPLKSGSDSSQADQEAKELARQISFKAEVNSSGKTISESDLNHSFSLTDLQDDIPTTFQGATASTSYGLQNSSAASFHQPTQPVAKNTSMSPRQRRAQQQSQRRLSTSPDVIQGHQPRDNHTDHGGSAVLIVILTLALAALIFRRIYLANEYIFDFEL
UniProt Q9P2K2: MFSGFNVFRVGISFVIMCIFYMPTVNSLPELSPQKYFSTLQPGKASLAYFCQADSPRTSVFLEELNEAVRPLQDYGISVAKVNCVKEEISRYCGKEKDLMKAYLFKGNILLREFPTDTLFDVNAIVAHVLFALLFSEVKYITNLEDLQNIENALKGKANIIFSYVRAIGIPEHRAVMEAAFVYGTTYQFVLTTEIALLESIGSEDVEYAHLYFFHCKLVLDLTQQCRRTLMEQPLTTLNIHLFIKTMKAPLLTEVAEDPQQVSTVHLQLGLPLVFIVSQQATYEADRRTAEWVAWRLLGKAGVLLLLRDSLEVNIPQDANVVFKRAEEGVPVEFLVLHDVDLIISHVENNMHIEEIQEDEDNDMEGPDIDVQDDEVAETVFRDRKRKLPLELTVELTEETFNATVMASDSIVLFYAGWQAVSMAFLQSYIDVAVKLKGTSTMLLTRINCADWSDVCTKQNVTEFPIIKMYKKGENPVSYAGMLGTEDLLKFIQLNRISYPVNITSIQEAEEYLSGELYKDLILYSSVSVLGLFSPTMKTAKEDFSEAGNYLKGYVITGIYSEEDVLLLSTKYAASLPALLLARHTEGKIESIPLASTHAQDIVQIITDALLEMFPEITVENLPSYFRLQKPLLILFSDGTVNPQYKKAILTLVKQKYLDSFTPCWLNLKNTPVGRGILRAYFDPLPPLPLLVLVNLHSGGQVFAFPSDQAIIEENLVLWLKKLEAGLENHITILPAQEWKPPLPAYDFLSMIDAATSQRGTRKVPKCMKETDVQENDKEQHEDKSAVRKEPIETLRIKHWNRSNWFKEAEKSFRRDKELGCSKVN
UniProt Q9BRA2: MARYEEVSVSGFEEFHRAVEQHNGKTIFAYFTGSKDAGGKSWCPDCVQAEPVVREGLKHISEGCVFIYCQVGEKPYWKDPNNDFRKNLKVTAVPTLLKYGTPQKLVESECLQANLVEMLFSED
UniProt Q9NY65, whole entry, looked up: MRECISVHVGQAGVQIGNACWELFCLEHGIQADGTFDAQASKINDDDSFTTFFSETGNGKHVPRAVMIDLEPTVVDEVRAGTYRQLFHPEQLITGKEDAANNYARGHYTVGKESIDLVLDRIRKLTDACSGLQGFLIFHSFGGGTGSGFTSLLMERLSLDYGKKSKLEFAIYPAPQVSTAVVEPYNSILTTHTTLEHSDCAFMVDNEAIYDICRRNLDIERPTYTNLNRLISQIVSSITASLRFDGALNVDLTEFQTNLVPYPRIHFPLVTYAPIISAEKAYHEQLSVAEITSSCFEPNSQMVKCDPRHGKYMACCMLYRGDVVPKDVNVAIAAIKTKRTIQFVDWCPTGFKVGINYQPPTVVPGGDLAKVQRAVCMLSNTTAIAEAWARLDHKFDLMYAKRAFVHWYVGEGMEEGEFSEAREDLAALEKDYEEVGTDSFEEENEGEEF
UniProt Q9UNY4: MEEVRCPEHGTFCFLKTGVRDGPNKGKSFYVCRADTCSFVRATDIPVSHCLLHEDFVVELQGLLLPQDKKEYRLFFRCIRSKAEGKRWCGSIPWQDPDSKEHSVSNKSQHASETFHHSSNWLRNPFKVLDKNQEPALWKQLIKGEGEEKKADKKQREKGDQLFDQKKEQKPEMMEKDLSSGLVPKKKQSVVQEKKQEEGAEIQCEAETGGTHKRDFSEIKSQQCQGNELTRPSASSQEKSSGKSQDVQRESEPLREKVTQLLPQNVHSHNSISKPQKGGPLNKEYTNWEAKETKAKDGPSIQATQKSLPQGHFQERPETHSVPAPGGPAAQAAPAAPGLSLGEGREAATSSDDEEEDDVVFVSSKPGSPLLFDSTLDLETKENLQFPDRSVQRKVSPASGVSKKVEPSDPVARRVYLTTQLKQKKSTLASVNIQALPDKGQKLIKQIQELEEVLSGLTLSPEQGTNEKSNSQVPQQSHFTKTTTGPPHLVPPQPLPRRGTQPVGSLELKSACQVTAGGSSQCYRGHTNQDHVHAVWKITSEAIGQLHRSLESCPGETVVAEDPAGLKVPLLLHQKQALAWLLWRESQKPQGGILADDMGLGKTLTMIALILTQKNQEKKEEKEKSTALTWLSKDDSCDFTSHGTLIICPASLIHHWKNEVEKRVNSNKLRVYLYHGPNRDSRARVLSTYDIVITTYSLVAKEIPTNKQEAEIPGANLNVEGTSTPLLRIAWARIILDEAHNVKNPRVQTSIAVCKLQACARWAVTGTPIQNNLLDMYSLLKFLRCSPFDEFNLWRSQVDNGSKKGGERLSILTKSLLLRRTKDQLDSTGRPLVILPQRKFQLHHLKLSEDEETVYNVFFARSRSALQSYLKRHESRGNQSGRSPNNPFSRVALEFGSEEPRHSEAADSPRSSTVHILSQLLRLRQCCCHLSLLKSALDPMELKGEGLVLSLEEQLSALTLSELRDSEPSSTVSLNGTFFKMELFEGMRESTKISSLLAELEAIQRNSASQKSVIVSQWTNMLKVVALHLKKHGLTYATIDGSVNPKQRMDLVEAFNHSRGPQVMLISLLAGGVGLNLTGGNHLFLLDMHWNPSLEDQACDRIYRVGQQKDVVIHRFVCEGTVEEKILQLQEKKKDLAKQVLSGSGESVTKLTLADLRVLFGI

Tests used:
Assay in all cases: log2 fold change, soluble protein after heating vs DMSO (PISA); higher = thermal stabilisation; K562 cells, 10 uM, 30 min; active = over 0.2 and 3.5 SD of the protein, either way, in both replicates (recomputed)
[1] = compound: CS(=O)(=O)c1ccc(-c2cnc(N)c(C(=O)Nc3ccccc3)n2)cc1
Outline: (§1)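 Aliquots of K562 cells (2×10^6 cells/mL) treated with 10 μM compound for 30 min were heated for 3 min over 48°C-58°C. After pooling and extraction in PBS with 0.5% NP-40 at 4°C, soluble protein from a 21,000xg, 90 min spin was quantified by TMTpro 16plex LC-MS/MS with channel sums equalised. Thermal stability is expressed against control samples, from duplicates, as a log2 fold change.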

crizotinib = compound: C[C@@H](Oc1cc(-c2cnn(C3CCNCC3)c2)cnc1N)c1c(Cl)ccc(F)c1Cl [crizotinib]
Outline: as §1

[2] = compound: C[C@@H]1COCCN1C2=NC(=NC(=C2)C3(CC3)S(=O)(=O)C)C4=C5C=CNC5=CC=C4
Outline: as §1

[3] = compound: C[C@H](C1=CC=C(C=C1)C(=O)NC2=C3C=CNC3=NC=C2)N
Outline: as §1

gandotinib = compound: Cc1cc(Nc2cc(CN3CCOCC3)c3nc(C)c(Cc4ccc(Cl)cc4F)n3n2)n[nH]1 [gandotinib]
Outline: as §1

[4] = compound: Cc1cc(SCc2sc(-c3ccc(C(F)(F)F)cc3)nc2C)ccc1OCC(=O)O
Outline: as §1

doramapimod = compound: Cc1ccc(-n2nc(C(C)(C)C)cc2NC(=O)Nc2ccc(OCCN3CCOCC3)c3ccccc23)cc1 [doramapimod]
Outline: as §1

ispinesib = compound: Cc1ccc(C(=O)N(CCCN)[C@@H](c2nc3cc(Cl)ccc3c(=O)n2Cc2ccccc2)C(C)C)cc1 [ispinesib]
Outline: as §1

bafetinib = compound: Cc1ccc(NC(=O)c2ccc(CN3CC[C@H](N(C)C)C3)c(C(F)(F)F)c2)cc1Nc1nccc(-c2cncnc2)n1 [bafetinib]
Outline: as §1

[5] = compound: Cc1cccc(CC(=O)N2CCc3c2ccc(-c2cn(C)c4ncnc(N)c24)c3F)n1
Outline: as §1

nilotinib = compound: Cc1cn(-c2cc(NC(=O)c3ccc(C)c(Nc4nccc(-c5cccnc5)n4)c3)cc(C(F)(F)F)c2)cn1 [nilotinib]
Outline: as §1

[6] = compound: Cc1nc(Nc2n[nH]c3c2CN(C(=O)N[C@H](CN(C)C)c2ccccc2)C3(C)C)c2sccc2n1
Outline: as §1

dasatinib = compound: Cc1nc(Nc2ncc(C(=O)Nc3c(C)cccc3Cl)s2)cc(N2CCN(CCO)CC2)n1 [dasatinib]
Outline: as §1

[7] = compound: Cc1ncc(-c2ccnc(Nc3ccc(S(C)(=O)=O)cc3)n2)n1C(C)C
Outline: as §1

[8] = compound: Cn1cc(-c2ccc3c(c2)CCN3C(=O)Cc2cccc(C(F)(F)F)c2)c2c(N)ncnc21
Outline: as §1

[9] = compound: Cn1cc(-c2ccc3nnc(C(F)(F)c4ccc5ncccc5c4)n3n2)cn1
Outline: as §1

tipifarnib = compound: Cn1cncc1[C@@](N)(c1ccc(Cl)cc1)c1ccc2c(c1)c(-c1cccc(Cl)c1)cc(=O)n2C [tipifarnib]
Outline: as §1

mubritinib = compound: FC(F)(F)c1ccc(/C=C/c2nc(COc3ccc(CCCCn4ccnn4)cc3)co2)cc1 [mubritinib]
Outline: as §1

duvelisib = compound: C[C@H](Nc1ncnc2nc[nH]c12)c1cc2cccc(Cl)c2c(=O)n1-c1ccccc1 [duvelisib]
Outline: as §1

tozasertib = compound: Cc1cc(Nc2cc(N3CCN(C)CC3)nc(Sc3ccc(NC(=O)C4CC4)cc3)n2)n[nH]1 [tozasertib]
Outline: as §1

Target | log2 fold change [1] | log2 fold change (crizotinib) | log2 fold change [2] | log2 fold change [3] | log2 fold change (gandotinib) | log2 fold change [4] | log2 fold change (doramapimod) | log2 fold change (ispinesib) | log2 fold change (bafetinib) | log2 fold change [5] | log2 fold change (nilotinib) | log2 fold change [6] | log2 fold change (dasatinib) | log2 fold change [7] | log2 fold change [8] | log2 fold change [9] | log2 fold change (tipifarnib) | log2 fold change (mubritinib) | log2 fold change (duvelisib) | log2 fold change (tozasertib)
UBA6 | inactive: 0.05 | inactive: 0.024 | inactive: 0.047 | inactive: -0.017 | inactive: -0.039 | inactive: 0.078 | inactive: -0.038 | inactive: 0.014 | inactive: 0.009 | inactive: 0.036 | inactive: 0.062 | inactive: -0.137 | inactive: -0.035 | inactive: -0.024 | inactive: 0.016 | inactive: -0.024 | inactive: -0.075 | active: 0.228 | – | –
U2AF2 (UniProt P26368) | inactive: 0.036 | inactive: -0.101 | inactive: 0.057 | inactive: -0.101 | inactive: 0.036 | inactive: 0.063 | inactive: -0.006 | inactive: 0.014 | inactive: -0.019 | active: -0.241 | inactive: -0.003 | active: -1.66 | inactive: 0.018 | inactive: 0.049 | inactive: -0.011 | inactive: -0.044 | inactive: 0.045 | inactive: -0.051 | – | –
TUFM (UniProt P49411) | inactive: 0.024 | inactive: 0.026 | inactive: 0.152 | inactive: -0.096 | inactive: -0.121 | inactive: 0.034 | inactive: -0.054 | inactive: -0.183 | inactive: 0.026 | inactive: 0.059 | inactive: -0.06 | inactive: -0.019 | inactive: -0.133 | inactive: -0.04 | inactive: 0.099 | inactive: 0.047 | inactive: -0.066 | inactive: -0.022 | inactive: 0.071 | inactive: -0.012
TSNAX (UniProt Q99598) | inactive: 0.006 | inactive: 0.057 | inactive: 0.04 | inactive: -0.022 | inactive: 0.023 | inactive: -0.026 | inactive: -0.029 | inactive: 0.036 | inactive: -0.032 | inactive: -0.025 | inactive: 0.006 | inactive: 0.021 | inactive: 0.037 | inactive: -0.008 | inactive: 0 | inactive: 0.027 | inactive: 0.016 | inactive: -0.022 | inactive: 0.013 | inactive: -0.035
TUBGCP3 (UniProt Q96CW5) | inactive: -0.015 | inactive: -0.16 | inactive: 0.041 | inactive: 0.353 | inactive: 0.038 | inactive: 0.011 | inactive: 0.121 | inactive: -0.161 | inactive: 0.085 | inactive: 0.106 | inactive: 0.063 | inactive: 0.174 | inactive: -0.136 | inactive: 0.034 | inactive: -0.022 | inactive: -0.021 | inactive: 0.01 | inactive: -0.046 | inactive: -0.095 | inactive: 0
TXNDC11 (UniProt Q6PKC3) | inactive: -0.016 | inactive: 0.033 | inactive: 0.133 | inactive: 0.031 | inactive: 0.046 | inactive: 0.025 | inactive: -0.024 | inactive: -0.024 | inactive: -0.101 | inactive: 0.013 | – | – | inactive: 0.045 | – | inactive: 0.056 | inactive: 0.038 | inactive: -0.156 | inactive: 0.035 | inactive: 0.07 | inactive: 0.032
TXNDC12 (UniProt O95881) | inactive: 0.049 | inactive: 0.081 | inactive: 0.029 | inactive: 0.196 | inactive: 0.103 | inactive: -0.032 | inactive: 0.001 | inactive: 0.006 | inactive: -0.043 | inactive: 0.031 | inactive: -0.019 | inactive: 0.033 | inactive: 0.077 | inactive: -0.046 | inactive: -0.049 | inactive: -0.043 | inactive: 0.103 | inactive: -0.011 | inactive: 0.054 | inactive: 0.056
TUT4 (UniProt Q5TAX3) | inactive: 0.069 | inactive: 0.075 | inactive: -0.286 | inactive: 0.095 | inactive: 0.024 | inactive: 0.195 | inactive: -0.003 | inactive: -0.124 | inactive: -0.281 | inactive: 0.074 | inactive: -0.153 | inactive: 0.01 | inactive: -0.105 | inactive: -0.116 | inactive: -0.097 | inactive: -0.066 | inactive: -0.049 | inactive: -0.01 | – | –
UBE2V2 (UniProt Q15819) | inactive: 0.032 | inactive: 0.039 | inactive: 0.089 | inactive: -0.044 | inactive: 0.029 | inactive: -0.012 | inactive: -0.031 | inactive: 0.013 | inactive: -0.055 | inactive: 0.017 | inactive: 0.068 | inactive: -0.015 | inactive: 0.002 | inactive: -0.015 | inactive: 0.053 | inactive: 0.009 | inactive: -0.011 | inactive: 0.036 | inactive: 0.039 | inactive: 0.004
UBAP2L isoform 1 (UniProt Q14157) | inactive: -0.034 | inactive: 0.077 | inactive: 0.009 | inactive: -0.008 | inactive: -0.007 | inactive: -0.056 | inactive: 0.034 | inactive: -0.026 | inactive: -0.006 | inactive: -0.043 | inactive: 0.013 | inactive: -0.134 | inactive: 0.058 | inactive: -0.056 | inactive: 0.064 | inactive: 0.034 | inactive: 0.076 | inactive: 0.07 | – | –
UBE2J1 (UniProt Q9Y385) | inactive: 0.06 | inactive: -0.172 | inactive: 0.026 | inactive: -0.043 | inactive: -0.151 | inactive: -0.01 | inactive: -0.26 | inactive: -0.016 | inactive: 0.108 | inactive: 0.023 | inactive: -0.076 | inactive: -0.09 | inactive: -0.028 | inactive: -0.189 | inactive: -0.053 | inactive: 0.003 | inactive: -0.056 | inactive: 0.132 | – | –
TXNDC16 (UniProt Q9P2K2) | inactive: 0.01 | inactive: -0.04 | inactive: -0.014 | inactive: 0.06 | inactive: 0.037 | inactive: 0.041 | inactive: 0.161 | inactive: -0.097 | – | inactive: 0.065 | inactive: 0.007 | inactive: 0.029 | inactive: 0.024 | inactive: -0.051 | inactive: -0.094 | inactive: 0.01 | inactive: -0.07 | inactive: 0.063 | inactive: -0.014 | inactive: -0.015
TXNDC17 (UniProt Q9BRA2) | inactive: 0.003 | inactive: 0.017 | inactive: 0.048 | inactive: -0.112 | inactive: -0.012 | inactive: -0.041 | inactive: -0.023 | inactive: 0.043 | inactive: -0.071 | inactive: -0.049 | inactive: -0.02 | inactive: -0.04 | inactive: -0.006 | inactive: 0.015 | inactive: 0.03 | inactive: 0.027 | inactive: 0 | inactive: 0.007 | inactive: 0.043 | inactive: 0.057
TUBB4A (UniProt M0QYM7) | inactive: 0.062 | inactive: 0.028 | inactive: 0.137 | inactive: 0.486 | inactive: 0.15 | inactive: -0.098 | inactive: 0.017 | – | inactive: -0.043 | inactive: -0.1 | inactive: -0.461 | inactive: 0.157 | inactive: 0.039 | inactive: -0.07 | inactive: -0.075 | – | inactive: 0.172 | inactive: 0.086 | inactive: 0.216 | inactive: -0.161
UBE2K (UniProt D6RDM7) | inactive: 0.214 | inactive: 0.074 | inactive: 0.193 | inactive: 0.02 | – | inactive: -0.379 | inactive: 0.007 | inactive: -0.101 | inactive: -0.264 | – | inactive: -0.064 | inactive: -0.215 | inactive: 0.226 | inactive: -0.096 | inactive: -0.188 | inactive: 0.059 | inactive: 0.219 | – | inactive: 0.243 | inactive: -0.134
TUBA8 (UniProt Q9NY65) | inactive: -0.076 | inactive: 0.069 | inactive: -0.548 | inactive: 0.816 | inactive: 0.144 | – | inactive: 0.532 | inactive: -0.545 | inactive: 0.475 | inactive: -0.102 | inactive: -0.197 | inactive: 0.3 | – | inactive: -0.093 | inactive: -0.822 | inactive: -0.267 | inactive: 0.165 | inactive: -0.023 | – | inactive: -0.117
TTF2 (UniProt Q9UNY4) | inactive: -0.088 | inactive: -0.037 | inactive: 0.174 | inactive: 0.439 | inactive: 0.106 | inactive: -0.081 | inactive: 0.18 | inactive: -0.269 | – | inactive: -0.068 | inactive: 0.024 | inactive: 0.139 | inactive: -0.432 | inactive: 0.216 | inactive: -0.038 | inactive: -0.157 | inactive: 0.102 | inactive: -0.118 | inactive: -0.173 | inactive: 0.003

Rewritten in markdown: part of the list above

| Target | log2 fold change [1] | log2 fold change (crizotinib) | log2 fold change [2] | log2 fold change [3] | log2 fold change (gandotinib) | log2 fold change [4] | log2 fold change (doramapimod) | log2 fold change (ispinesib) | log2 fold change (bafetinib) | log2 fold change [5] | log2 fold change (nilotinib) | log2 fold change [6] | log2 fold change (dasatinib) | log2 fold change [7] | log2 fold change [8] | log2 fold change [9] | log2 fold change (tipifarnib) | log2 fold change (mubritinib) | log2 fold change (duvelisib) | log2 fold change (tozasertib) |
| --- | --- | --- | --- | --- | --- | --- | --- | --- | --- | --- | --- | --- | --- | --- | --- | --- | --- | --- | --- | --- |
| TXNDC11 (UniProt Q6PKC3) | inactive: -0.016 | inactive: 0.033 | inactive: 0.133 | inactive: 0.031 | inactive: 0.046 | inactive: 0.025 | inactive: -0.024 | inactive: -0.024 | inactive: -0.101 | inactive: 0.013 | – | – | inactive: 0.045 | – | inactive: 0.056 | inactive: 0.038 | inactive: -0.156 | inactive: 0.035 | inactive: 0.07 | inactive: 0.032 |
| TUBA8 (UniProt Q9NY65) | inactive: -0.076 | inactive: 0.069 | inactive: -0.548 | inactive: 0.816 | inactive: 0.144 | – | inactive: 0.532 | inactive: -0.545 | inactive: 0.475 | inactive: -0.102 | inactive: -0.197 | inactive: 0.3 | – | inactive: -0.093 | inactive: -0.822 | inactive: -0.267 | inactive: 0.165 | inactive: -0.023 | – | inactive: -0.117 |
